{"source": "patent US20210179689A1", "about": "(SHATTUCK LABS, published 2021)", "target": "T1, recombinant mouse CD40-Fc protein (mouse) (UniProt P27512)", "T1 sequence (looked up)": "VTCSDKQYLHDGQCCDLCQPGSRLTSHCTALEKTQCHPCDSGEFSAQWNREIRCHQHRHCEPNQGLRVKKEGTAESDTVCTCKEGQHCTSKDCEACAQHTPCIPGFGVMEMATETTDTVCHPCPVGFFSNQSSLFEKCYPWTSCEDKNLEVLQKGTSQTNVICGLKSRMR", "experiment": "ELISA: coat mCD40-Fc, detection anti-mCD40L and an HRP conjugate; standard curve", "note": "No constants are given. Whether binding was seen depends on the method and setting. Some entries that bind do so weakly or less than the wild type. Where a sequence is shown, tags or fusion partners need not be part of it.", "data": [{"binder": "mCD40L-Fc fusion protein (Fc fusion, murine, UniProt P27548 112-260, looked up, also called recombinant mCD40L-Fc protein; not shown: Fc part) MQRGDEDPQIAAHVVSEANSNAASVLQWAKKGYYTMKSNLVMLENGKQLTVKREGLYYVYTQVTFCSNREPSSQRPFIVGLWLKPSSGSERILLKAANTHSSSQLCEQQSVHLGGVFELQAGASVFVNVTEASQVIHRVGFSSFGLLKL", "values": [{"measurement": "binding", "result": "binds"}]}]}
